T1: polyhistidine-tagged NudC (NudC-His) (E. coli) (UniProt P32664)
T1 sequence: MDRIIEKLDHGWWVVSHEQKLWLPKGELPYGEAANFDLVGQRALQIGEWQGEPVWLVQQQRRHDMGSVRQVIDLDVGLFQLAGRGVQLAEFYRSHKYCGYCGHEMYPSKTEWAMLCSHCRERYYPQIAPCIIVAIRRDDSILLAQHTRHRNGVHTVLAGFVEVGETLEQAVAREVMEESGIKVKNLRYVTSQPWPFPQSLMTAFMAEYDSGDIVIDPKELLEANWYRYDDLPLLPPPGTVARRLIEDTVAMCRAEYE

Sequences of proteins named here, by UniProt entry; tags and fusion partners are left off. A change or cut given only in a name is not applied to a line headed by its entry.
UniProt P0A6H1: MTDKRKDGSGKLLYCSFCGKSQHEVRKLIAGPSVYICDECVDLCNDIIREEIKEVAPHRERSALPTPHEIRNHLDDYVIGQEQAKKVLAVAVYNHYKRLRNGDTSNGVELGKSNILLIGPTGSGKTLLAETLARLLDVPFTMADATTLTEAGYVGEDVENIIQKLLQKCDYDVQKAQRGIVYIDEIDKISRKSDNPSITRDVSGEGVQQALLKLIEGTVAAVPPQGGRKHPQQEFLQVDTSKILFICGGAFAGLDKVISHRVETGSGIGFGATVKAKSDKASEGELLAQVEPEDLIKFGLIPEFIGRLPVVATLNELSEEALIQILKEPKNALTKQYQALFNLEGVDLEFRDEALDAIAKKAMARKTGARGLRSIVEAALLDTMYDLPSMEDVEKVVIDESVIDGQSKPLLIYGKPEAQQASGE
UniProt P63284: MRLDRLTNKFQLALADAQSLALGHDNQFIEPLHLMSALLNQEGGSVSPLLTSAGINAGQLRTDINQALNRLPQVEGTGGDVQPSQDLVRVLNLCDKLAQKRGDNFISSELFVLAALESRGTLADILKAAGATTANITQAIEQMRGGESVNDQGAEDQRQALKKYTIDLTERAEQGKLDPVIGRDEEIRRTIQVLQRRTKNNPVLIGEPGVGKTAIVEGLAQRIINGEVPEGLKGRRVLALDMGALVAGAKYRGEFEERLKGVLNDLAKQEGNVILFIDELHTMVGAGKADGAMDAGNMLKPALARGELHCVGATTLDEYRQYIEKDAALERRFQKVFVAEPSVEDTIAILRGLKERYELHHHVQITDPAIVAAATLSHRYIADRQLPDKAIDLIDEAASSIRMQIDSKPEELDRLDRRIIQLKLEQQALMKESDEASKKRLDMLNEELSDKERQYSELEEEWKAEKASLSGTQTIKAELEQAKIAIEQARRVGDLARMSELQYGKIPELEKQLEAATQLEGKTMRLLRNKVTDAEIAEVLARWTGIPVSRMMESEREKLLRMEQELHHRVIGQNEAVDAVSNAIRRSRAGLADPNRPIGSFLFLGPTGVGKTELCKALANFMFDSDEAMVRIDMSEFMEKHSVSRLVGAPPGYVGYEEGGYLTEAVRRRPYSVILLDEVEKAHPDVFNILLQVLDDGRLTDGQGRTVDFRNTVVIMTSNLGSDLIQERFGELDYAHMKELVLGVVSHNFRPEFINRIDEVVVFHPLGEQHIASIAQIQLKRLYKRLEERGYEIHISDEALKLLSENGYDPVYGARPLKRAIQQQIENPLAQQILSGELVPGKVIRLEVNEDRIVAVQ
UniProt P0A6Z3: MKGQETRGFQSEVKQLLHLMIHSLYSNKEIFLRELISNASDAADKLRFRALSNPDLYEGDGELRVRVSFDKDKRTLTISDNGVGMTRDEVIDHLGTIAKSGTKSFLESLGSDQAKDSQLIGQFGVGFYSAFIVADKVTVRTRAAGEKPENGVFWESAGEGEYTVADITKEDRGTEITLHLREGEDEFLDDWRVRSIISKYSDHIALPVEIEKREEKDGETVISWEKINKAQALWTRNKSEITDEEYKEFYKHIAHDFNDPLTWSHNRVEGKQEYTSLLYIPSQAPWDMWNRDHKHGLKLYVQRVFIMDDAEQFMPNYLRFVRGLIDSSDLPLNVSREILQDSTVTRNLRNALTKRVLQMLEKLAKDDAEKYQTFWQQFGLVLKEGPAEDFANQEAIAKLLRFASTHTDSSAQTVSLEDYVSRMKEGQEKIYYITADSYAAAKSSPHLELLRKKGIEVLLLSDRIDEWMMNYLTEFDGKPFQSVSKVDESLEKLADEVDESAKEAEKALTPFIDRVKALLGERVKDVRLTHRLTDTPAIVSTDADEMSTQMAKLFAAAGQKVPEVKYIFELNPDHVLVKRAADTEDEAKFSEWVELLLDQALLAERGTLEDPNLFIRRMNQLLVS
UniProt P0A6H5: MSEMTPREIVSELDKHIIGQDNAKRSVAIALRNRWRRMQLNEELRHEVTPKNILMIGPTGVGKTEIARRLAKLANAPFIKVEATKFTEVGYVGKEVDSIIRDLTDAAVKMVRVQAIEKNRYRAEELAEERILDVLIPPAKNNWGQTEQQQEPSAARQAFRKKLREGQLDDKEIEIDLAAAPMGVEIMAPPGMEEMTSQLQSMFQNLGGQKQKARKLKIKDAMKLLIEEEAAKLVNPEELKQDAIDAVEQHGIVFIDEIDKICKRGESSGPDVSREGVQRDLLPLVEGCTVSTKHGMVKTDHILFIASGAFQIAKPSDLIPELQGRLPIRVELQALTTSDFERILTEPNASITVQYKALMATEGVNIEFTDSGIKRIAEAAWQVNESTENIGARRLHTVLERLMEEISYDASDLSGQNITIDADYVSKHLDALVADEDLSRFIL
UniProt P0A6X3: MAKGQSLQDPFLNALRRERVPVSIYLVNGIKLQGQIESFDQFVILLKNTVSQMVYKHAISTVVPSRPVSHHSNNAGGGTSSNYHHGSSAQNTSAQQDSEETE
UniProt P0A705: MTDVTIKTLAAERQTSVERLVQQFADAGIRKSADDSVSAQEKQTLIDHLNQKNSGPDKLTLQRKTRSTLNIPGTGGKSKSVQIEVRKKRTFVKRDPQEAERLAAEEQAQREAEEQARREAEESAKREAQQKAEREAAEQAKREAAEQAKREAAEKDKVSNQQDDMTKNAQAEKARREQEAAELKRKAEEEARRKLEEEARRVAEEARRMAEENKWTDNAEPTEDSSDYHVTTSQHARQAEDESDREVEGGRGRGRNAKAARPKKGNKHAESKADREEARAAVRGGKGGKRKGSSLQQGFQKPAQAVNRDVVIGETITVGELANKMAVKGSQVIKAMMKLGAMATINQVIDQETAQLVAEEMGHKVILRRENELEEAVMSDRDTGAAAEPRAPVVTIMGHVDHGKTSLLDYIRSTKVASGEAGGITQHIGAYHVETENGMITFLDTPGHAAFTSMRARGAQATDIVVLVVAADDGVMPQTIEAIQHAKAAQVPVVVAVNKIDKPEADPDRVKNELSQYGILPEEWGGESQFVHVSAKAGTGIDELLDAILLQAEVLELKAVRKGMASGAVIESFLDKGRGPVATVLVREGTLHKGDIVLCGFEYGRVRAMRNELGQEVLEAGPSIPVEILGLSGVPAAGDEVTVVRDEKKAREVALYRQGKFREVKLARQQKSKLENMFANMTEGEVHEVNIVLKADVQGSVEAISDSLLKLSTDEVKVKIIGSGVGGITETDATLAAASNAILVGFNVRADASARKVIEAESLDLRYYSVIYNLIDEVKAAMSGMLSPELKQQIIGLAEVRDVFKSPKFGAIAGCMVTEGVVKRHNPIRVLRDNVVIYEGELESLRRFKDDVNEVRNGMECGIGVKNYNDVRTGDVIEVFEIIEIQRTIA
UniProt P0A850: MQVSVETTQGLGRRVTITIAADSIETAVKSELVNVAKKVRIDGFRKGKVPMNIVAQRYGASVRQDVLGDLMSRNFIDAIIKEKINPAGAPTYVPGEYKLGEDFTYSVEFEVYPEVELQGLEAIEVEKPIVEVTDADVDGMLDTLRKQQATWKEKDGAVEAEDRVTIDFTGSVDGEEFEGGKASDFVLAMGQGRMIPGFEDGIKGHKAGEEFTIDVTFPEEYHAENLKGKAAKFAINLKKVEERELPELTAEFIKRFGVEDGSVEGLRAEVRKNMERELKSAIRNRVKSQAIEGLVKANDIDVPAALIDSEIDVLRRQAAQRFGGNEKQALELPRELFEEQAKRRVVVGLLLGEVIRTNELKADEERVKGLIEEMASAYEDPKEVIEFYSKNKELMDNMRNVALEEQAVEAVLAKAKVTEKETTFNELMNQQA
UniProt P21513: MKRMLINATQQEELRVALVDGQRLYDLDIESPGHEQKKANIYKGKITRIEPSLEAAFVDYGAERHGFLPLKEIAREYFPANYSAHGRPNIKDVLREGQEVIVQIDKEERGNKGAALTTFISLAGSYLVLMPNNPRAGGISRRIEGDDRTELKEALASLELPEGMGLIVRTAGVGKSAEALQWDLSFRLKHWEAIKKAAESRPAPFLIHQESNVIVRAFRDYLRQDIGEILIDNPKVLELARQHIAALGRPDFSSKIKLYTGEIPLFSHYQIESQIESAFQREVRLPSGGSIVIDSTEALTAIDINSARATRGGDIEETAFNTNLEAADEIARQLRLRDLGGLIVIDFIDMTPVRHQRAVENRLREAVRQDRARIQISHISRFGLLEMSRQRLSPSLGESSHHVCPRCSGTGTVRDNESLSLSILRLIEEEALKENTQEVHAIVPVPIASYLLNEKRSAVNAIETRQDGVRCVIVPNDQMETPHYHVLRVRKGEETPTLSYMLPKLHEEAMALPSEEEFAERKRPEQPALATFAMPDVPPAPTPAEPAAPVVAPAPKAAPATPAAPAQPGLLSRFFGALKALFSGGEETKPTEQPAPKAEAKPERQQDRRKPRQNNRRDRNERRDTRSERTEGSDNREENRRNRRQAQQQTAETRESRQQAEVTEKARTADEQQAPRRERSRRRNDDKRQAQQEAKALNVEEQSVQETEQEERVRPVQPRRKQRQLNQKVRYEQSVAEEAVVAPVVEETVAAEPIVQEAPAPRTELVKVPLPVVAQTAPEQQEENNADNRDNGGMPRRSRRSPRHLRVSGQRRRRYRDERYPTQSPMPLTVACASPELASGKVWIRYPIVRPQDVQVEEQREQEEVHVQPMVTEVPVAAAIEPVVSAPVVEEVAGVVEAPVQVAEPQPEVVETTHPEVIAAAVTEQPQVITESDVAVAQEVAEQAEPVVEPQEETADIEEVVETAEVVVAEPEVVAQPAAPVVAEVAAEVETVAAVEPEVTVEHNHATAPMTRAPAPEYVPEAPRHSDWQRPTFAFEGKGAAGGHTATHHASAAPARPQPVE
UniProt P0A7J3: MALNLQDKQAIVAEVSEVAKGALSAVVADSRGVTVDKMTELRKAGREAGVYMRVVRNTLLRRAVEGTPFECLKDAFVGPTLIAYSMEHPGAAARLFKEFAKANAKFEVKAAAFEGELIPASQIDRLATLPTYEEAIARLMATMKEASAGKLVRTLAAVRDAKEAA
UniProt P08622: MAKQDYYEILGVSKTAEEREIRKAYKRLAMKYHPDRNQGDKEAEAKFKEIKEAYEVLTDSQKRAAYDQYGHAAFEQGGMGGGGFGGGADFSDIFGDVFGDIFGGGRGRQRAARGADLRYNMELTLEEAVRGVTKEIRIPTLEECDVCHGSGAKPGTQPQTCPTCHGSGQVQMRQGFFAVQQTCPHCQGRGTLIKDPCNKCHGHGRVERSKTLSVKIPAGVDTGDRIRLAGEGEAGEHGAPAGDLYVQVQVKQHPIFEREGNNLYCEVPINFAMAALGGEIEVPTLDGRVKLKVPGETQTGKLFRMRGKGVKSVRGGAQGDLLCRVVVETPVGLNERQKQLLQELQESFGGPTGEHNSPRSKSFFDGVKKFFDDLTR
UniProt P0A9P6: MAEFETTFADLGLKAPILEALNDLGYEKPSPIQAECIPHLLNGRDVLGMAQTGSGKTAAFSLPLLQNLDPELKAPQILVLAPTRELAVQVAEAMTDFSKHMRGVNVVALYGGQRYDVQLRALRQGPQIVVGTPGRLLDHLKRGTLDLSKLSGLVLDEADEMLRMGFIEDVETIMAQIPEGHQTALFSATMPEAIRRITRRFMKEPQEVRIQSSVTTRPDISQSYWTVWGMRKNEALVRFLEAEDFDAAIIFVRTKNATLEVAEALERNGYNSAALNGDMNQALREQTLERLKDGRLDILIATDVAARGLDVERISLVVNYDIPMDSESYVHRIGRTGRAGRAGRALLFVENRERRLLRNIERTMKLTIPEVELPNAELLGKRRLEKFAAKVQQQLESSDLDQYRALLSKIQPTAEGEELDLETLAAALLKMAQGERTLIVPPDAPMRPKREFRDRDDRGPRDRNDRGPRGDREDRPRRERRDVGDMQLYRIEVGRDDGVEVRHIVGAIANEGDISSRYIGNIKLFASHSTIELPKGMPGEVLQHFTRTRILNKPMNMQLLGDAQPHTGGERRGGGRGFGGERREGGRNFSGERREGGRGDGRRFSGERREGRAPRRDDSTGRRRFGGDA
UniProt P0A6K6: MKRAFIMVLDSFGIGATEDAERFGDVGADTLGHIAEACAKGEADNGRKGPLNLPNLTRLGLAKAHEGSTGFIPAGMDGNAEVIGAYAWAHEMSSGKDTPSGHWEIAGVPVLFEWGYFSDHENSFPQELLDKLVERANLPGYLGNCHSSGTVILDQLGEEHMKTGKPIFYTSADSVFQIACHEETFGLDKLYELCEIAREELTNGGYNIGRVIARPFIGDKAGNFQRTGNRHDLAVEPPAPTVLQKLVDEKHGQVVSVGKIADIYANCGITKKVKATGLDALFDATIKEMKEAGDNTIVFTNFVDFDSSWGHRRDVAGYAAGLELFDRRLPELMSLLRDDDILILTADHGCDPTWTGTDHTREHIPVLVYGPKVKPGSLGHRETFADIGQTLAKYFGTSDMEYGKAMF

B1: RNA helicase RhlB (protein, UniProt P0A8J8 1-421)
chain: MSKTHLTEQKFSDFALHPKVVEALEKKGFHNCTPIQALALPLTLAGRDVAGQAQTGTGKTMAFLTSTFHYLLSHPAIADRKVNQPRALIMAPTRELAVQIHADAEPLAEATGLKLGLAYGGDGYDKQLKVLESGVDILIGTTGRLIDYAKQNHINLGAIQVVVLDEADRMYDLGFIKDIRWLFRRMPPANQRLNMLFSATLSYRVRELAFEQMNNAEYIEVEPEQKTGHRIKEELFYPSNEEKMRLLQTLIEEEWPDRAIIFANTKHRCEEIWGHLAADGHRVGLLTGDVAQKKRLRILDEFTRGDLDILVATDVAARGLHIPAVTHVFNYDLPDDCEDYVHRIGRTGRAGASGHSISLACEEYALNLPAIETYIGHSIPVSKYNPDALMTDLPKPLRLTRPRTGNGPRRTGAPRNRRRSG
B2: Polyribonucleotide nucleotidyltransferase (protein, UniProt P05055 1-711)
chain: MLNPIVRKFQYGQHTVTLETGMMARQATAAVMVSMDDTAVFVTVVGQKKAKPGQDFFPLTVNYQERTYAAGRIPGSFFRREGRPSEGETLIARLIDRPIRPLFPEGFVNEVQVIATVVSVNPQVNPDIVAMIGASAALSLSGIPFNGPIGAARVGYINDQYVLNPTQDELKESKLDLVVAGTEAAVLMVESEAQLLSEDQMLGAVVFGHEQQQVVIQNINELVKEAGKPRWDWQPEPVNEALNARVAALAEARLSDAYRITDKQERYAQVDVIKSETIATLLAEDETLDENELGEILHAIEKNVVRSRVLAGEPRIDGREKDMIRGLDVRTGVLPRTHGSALFTRGETQALVTATLGTARDAQVLDELMGERTDTFLFHYNFPPYSVGETGMVGSPKRREIGHGRLAKRGVLAVMPDMDKFPYTVRVVSEITESNGSSSMASVCGASLALMDAGVPIKAAVAGIAMGLVKEGDNYVVLSDILGDEDHLGDMDFKVAGSRDGISALQMDIKIEGITKEIMQVALNQAKGARLHILGVMEQAINAPRGDISEFAPRIHTIKINPDKIKDVIGKGGSVIRALTEETGTTIEIEDDGTVKIAATDGEKAKHAIRRIEEITAEIEVGRVYTGKVTRIVDFGAFVAIGGGKEGLVHISQIADKRVEKVTDYLQMGQEVPVKVLEVDRQGRIRLSIKEATEQSQPAAAPEAPAAEQGE
B3: Small heat shock protein IbpA (protein, UniProt P0C054 1-137)
chain: MRNFDLSPLYRSAIGFDRLFNHLENNQSQSNGGYPPYNVELVDENHYRIAIAVAGFAESELEITAQDNLLVVKGAHADEQKERTYLYQGIAERNFERKFQLAENIHVRGANLVNGLLYIDLERVIPEAKKPRRIEIN
B4: Succinate dehydrogenase flavoprotein (protein, UniProt P0AC41 1-588)
chain: MKLPVREFDAVVIGAGGAGMRAALQISQSGQTCALLSKVFPTRSHTVSAQGGITVALGNTHEDNWEWHMYDTVKGSDYIGDQDAIEYMCKTGPEAILELEHMGLPFSRLDDGRIYQRPFGGQSKNFGGEQAARTAAAADRTGHALLHTLYQQNLKNHTTIFSEWYALDLVKNQDGAVVGCTALCIETGEVVYFKARATVLATGGAGRIYQSTTNAHINTGDGVGMAIRAGVPVQDMEMWQFHPTGIAGAGVLVTEGCRGEGGYLLNKHGERFMERYAPNAKDLAGRDVVARSIMIEIREGRGCDGPWGPHAKLKLDHLGKEVLESRLPGILELSRTFAHVDPVKEPIPVIPTCHYMMGGIPTKVTGQALTVNEKGEDVVVPGLFAVGEIACVSVHGANRLGGNSLLDLVVFGRAAGLHLQESIAEQGALRDASESDVEASLDRLNRWNNNRNGEDPVAIRKALQECMQHNFSVFREGDAMAKGLEQLKVIRERLKNARLDDTSSEFNTQRVECLELDNLMETAYATAVSANFRTESRGAHSRFDFPDRDDENWLCHSLYLPESESMTRRSVNMEPKLRPAFPPKIRTY
B5: UspA domain protein UspG (UP12) (protein, UniProt P39177 1-142)
chain: MYKTIIMPVDVFEMELSDKAVRHAEFLAQDDGVIHLLHVLPGSASLSLHRFAADVRRFEEHLQHEAQERLQTMVSHFTIDPSRIKQHVRFGSVRDEVNELAEELGADVVVIGSRNPSISTHLLGSNASSVIRHANLPVLVVR
B6: Cold-shock chaperone protein YdfK (protein, UniProt P76154 1-77)
chain: MKSKDTLKWFPAQLPEVRIILGDAVVEVAKQGRPINTRTLLDYIEGNIKKKSWLDNKELLQTAISVLKDNQNLNGKM

These are yes or no findings as the source states them, for the method shown. Binding seen in cells or lysates may run through a third protein. These calls come from enrichment with a bait or labelling near it, and not all partners need be listed. A no says only that the protein was not detected with the bait. Sequences can lack the tags named with a protein.

One assay concerns the target T1, polyhistidine-tagged NudC (NudC-His) (E. coli). The assay is described as follows: affinity purification with mass spectrometry; proteome-wide screen: NudC-His expressed in E. coli BL21(DE3)RIL cells (16°C or 37°C); Ni2+ resin, washes, NudC-associated proteins eluted with 8 M urea; LC-MS^E; proteins in at least two of three replicates and not in controls without NudC.
As for “CRM domain-containing protein (E. coli (endogenous in BL21(DE3)RIL))”, the binding result is “binds”. With “Clp protease ATP-binding subunit ClpX (from UniProt P0A6H1 1-424)”, the binding entry is “binds”. The same measure, in the same setting: in the case of “Heat-shock chaperone protein ClpB (from UniProt P63284 1-857)” it was “binds”; in that of “Heat-shock chaperone protein HtpG (from UniProt P0A6Z3 1-624)”, “binds”; in that of “Protease ATPase subunit HslU (from UniProt P0A6H5 1-443)”, “binds”.

Take “RNA chaperone protein Hfq (from UniProt P0A6X3 1-102)”: the binding entry was “binds”. Still for that read-out and setting: in the case of “Transcription termination factor Rho (from UniProt P0AG30 1-419)” it was “binds”.

For “Translation initiation factor IF-2 (from UniProt P0A705 1-890)”, the binding entry is “binds”.

Consider “Trigger factor (from UniProt P0A850 1-432)”, for which the binding entry was “binds”. As for “ribonuclease E (RNase E) (from UniProt P21513 1-1061)”, the binding result is listed as “no binding”. Same read-out and setting: in the case of “tRNA/rRNA methyltransferase (SpoU) (E. coli (endogenous in BL21(DE3)RIL))” it was “binds”.

The next assay shares this target. The description is as above. This is another data set of the same source.
Regarding B1, the binding result is reported as “no binding”.

For a further assay the target is unchanged. The assay is described as follows: affinity purification with mass spectrometry; proteome-wide screen: purified NudC-His added to E. coli BL21(DE3)RIL lysate (cells grown at 16°C or 37°C); Ni2+ resin, washes, NudC-associated proteins eluted with 8 M urea; LC-MS^E; proteins in at least two of three replicates and not in controls without NudC; only the target purified.
In the case of “50S ribosome subunit protein L1 (from UniProt P0A7L0 1-234)”, the binding result is “binds”. On the same count and under the same terms, in the case of “50S ribosome subunit protein L10 (from UniProt P0A7J3 1-165)” it was “binds”; in that of “50S ribosome subunit protein L11 (from UniProt P0A7J7 1-142)”, “binds”; in that of “Chaperone protein DnaJ (from UniProt P08622 1-376)”, “binds”. The same measure, in the same setting: the result for “DEAD-box RNA helicase CsdA (from UniProt P0A9P6)” reads “binds”. On to “Phosphopentomutase (from UniProt P0A6K6 1-407)”, for which the binding result is given as “binds”. Still for that read-out and setting: the result for “ribonuclease E (RNase E) (from UniProt P21513 1-1061)” reads “no binding”; that for B2, “binds”.

In the case of B3, the binding result is recorded as “binds”. As to B4, the binding result is on record as “binds”. Take B5: the binding result is “binds”.

On to B6, for which the binding entry is listed as “binds”.

For B1, the binding result is reported as “no binding”.

(Values after article PMC10654059.)
